Measured values from PMC7749165, “The δ subunit and NTPase HelD institute a two-pronged mechanism for RNA polymerase recycling” (Nature Communications, 2020).
No constants are given. Whether binding was seen depends on the method and setting. Some entries that bind do so weakly or less than the wild type. One block for each binder: values may come before it.

Amino acid sequences for entries named in this document (tags omitted).
UniProt P37871: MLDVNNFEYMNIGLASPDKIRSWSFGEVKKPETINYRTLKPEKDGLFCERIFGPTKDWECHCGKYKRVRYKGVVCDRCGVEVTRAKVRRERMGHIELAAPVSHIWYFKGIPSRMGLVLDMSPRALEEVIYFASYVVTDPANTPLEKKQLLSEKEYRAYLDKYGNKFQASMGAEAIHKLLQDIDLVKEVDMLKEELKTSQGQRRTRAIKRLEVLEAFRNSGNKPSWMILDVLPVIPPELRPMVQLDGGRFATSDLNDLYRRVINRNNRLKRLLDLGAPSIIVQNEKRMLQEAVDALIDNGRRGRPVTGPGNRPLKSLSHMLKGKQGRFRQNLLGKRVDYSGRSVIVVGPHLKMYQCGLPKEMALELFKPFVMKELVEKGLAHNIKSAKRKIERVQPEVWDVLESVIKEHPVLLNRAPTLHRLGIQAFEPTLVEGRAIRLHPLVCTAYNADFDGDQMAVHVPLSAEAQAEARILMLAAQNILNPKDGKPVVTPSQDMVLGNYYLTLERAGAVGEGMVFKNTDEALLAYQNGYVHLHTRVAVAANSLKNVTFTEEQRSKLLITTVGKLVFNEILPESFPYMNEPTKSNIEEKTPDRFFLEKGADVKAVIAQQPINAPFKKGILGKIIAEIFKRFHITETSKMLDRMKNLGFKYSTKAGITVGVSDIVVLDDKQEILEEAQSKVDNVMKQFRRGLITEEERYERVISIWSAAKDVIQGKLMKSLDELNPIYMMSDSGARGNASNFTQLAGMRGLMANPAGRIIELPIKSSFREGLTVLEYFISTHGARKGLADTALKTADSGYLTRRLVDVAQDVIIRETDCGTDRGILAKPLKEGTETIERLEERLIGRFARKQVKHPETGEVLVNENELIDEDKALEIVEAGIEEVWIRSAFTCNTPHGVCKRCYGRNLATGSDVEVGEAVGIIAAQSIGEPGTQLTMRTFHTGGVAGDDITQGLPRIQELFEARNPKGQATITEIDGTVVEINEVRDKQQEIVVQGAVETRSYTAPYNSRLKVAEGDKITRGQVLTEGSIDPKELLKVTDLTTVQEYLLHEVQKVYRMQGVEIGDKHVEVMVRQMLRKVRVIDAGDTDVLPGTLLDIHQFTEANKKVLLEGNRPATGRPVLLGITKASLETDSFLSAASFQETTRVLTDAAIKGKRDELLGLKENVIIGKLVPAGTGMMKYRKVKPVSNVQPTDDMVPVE

Biological target: RNAP β′ subunit with chromosomally encoded C-terminal His10-tag (B. subtilis) (UniProt P37871)
Experiment: co-purification; RNAP captured from lysates of stationary phase B. subtilis by the C-terminal His10-tag on β′ (Ni-NTA), then heparin column and SEC, 4 °C; content of the fractions told from gels (strains MH5636, LK782, LK1032)

binding: binds
B1: PriA, co-purified with RNAP (protein, UniProt P94461 1-805)
chain: MNFAEVIVDVSTKNIDRPFDYKIPDHLKGMIKTGMRVIVPFGPRKIQGFVTAVKEASDLSGKSVKEVEDLLDLTPVLTEELMILSSWLSDKTLSFKITALQAMLPAALKAKYEKELKIAHGADLPPQVERLFSETKTLLYSDIPDHETLKLIQRHVQKGDIDVTYKVAQKTNKKMVRHIQANASKEELAKQAEGLSRQAAKQQAILHFLISEPEGVKIPAAELCKKTDTSSATIKTLIQKGLLKESYEEVYRDPYQDKMFKKTEPLPLTDEQRAAFEPIRETLDSDEHKVFLLHGVTGSGKTEIYLQSIEKVLAKGKEAIVLVPEISLTPQMVNRFKGRFGSQVAVMHSGLSTGEKYDEWRKIHRKEVRLVVGARSAIFAPFENLGMIIIDEEHESSYKQEEMPRYHAKEVAIKRAEHHSCPVVLGSATPTLESYARAQKGVYELLSLKHRVNHRVMPEVSLVDMREELRNGNRSMFSVELMEKLEETIAKGEQAVLFLNKRGYSSFVMCRDCGYVPQCPHCDISMTYHRYGQRLKCHYCGHEEPVPHTCPECASEHIRFFGTGTQRVEEELTKVLPSARVIRMDVDTTSRKGAHEKLLSAFGEGKADILLGTQMIAKGLDFPNVTLVGVLSADTTLHIPDFRSAEKTFQLLTQVSGRAGRHEKPGHVIIQTYTPSHYSIQLTKTHDYETFYQHEMAHRREQSYPPYYYLALVTVSHEEVAKAAVTAEKIAHFLKANCGADTKILGPSASPIARIKDRYRYQCVIKYKQETQLSALLKKILEHYKREIEQKHVMISIDMNPYMMM

binding: binds
B2: σ^B, co-purified with RNAP (protein, UniProt P06574 1-262)
chain: MTQPSKTTKLTKDEVDRLISDYQTKQDEQAQETLVRVYTNLVDMLAKKYSKGKSFHEDLRQVGMIGLLGAIKRYDPVVGKSFEAFAIPTIIGEIKRFLRDKTWSVHVPRRIKELGPRIKMAVDQLTTETQRSPKVEEIAEFLDVSEEEVLETMEMGKSYQALSVDHSIEADSDGSTVTILDIVGSQEDGYERVNQQLMLQSVLHVLSDREKQIIDLTYIQNKSQKETGDILGISQMHVSRLQRKAVKKLREALIEDPSMELM
